Data from publication PMC4762897.
Results are given in words; binding and its absence hold for the method and conditions named. In cells and extracts the contact can be indirect. Some binding calls cover weakened binding; strength is not graded here.

By UniProt entry, the sequences of proteins in these tests, tags left out.
UniProt Q00899: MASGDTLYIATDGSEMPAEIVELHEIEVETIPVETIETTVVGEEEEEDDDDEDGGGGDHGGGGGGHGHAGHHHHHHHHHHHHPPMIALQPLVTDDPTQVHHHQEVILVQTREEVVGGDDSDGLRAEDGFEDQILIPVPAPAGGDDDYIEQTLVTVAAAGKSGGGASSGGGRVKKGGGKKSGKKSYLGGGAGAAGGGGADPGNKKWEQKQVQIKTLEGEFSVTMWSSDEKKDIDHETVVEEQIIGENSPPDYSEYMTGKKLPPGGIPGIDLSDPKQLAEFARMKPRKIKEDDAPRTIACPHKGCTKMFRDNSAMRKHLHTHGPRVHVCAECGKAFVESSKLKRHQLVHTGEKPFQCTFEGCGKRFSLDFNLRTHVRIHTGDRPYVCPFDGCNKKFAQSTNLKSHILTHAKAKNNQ
UniProt Q62432: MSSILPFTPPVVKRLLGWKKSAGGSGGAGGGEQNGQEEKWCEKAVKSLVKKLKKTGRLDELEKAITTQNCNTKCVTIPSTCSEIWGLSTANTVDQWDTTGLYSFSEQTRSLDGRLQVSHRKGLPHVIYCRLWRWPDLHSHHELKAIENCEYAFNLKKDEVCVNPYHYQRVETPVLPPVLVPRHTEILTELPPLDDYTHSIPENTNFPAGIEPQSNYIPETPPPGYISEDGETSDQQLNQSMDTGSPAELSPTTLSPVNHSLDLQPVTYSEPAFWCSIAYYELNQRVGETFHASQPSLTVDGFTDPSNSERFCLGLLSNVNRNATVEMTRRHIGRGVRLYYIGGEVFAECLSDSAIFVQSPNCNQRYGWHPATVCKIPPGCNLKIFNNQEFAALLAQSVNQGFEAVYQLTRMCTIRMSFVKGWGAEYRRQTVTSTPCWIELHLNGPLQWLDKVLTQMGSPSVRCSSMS
UniProt Q8BUN5: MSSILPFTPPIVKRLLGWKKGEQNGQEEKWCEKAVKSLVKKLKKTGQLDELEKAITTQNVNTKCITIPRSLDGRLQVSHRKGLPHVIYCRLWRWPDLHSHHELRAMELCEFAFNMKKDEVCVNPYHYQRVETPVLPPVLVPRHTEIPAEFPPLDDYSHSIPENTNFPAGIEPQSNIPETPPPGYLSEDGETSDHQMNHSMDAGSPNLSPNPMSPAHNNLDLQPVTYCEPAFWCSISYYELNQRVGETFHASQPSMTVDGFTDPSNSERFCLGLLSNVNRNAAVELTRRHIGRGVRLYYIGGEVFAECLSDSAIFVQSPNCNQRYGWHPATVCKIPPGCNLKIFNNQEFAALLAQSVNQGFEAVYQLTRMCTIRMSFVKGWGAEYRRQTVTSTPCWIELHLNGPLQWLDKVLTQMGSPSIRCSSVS
UniProt P97471: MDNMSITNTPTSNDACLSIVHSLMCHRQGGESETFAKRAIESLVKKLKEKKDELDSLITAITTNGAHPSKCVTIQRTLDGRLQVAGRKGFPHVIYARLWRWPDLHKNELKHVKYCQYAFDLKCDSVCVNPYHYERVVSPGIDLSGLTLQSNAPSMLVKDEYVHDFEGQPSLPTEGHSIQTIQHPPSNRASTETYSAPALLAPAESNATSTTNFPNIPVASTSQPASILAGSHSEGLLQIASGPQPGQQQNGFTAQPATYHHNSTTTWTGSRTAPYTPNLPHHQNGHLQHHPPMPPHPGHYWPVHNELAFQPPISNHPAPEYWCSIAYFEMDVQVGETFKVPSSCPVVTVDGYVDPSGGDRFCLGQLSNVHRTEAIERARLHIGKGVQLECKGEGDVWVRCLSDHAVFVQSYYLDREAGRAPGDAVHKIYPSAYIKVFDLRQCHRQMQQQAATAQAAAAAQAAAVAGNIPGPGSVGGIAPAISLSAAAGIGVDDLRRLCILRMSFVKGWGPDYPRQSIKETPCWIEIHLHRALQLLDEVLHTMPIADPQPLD

Tests used:
YY1 (mouse) [1] = target: YY1 (mouse) (UniProt Q00899); assay: co-IP; HEK293T transfected with Smad3-, Smad4- or Foxp3-expression vector together with FLAG-tagged YY1 or YY1 domain mutants; lysates immunoprecipitated with anti-FLAG; immunoblot with anti-Smad3, anti-Smad4, anti-Foxp3 or anti-FLAG
YY1 (mouse) [2] = target: YY1 (mouse) (UniProt Q00899); assay: co-IP; HEK293T transfected with expression vectors; lysates pre-cleared with control IgG and protein A/G, incubated overnight at 4 °C with anti-Smad3, anti-Smad4, anti-Foxp3, anti-YY1 or control IgG, then protein A/G beads; immunoblot

Row | Molecule | binding (YY1 (mouse) [1]) | binding (YY1 (mouse) [2])
1 | Smad2 (from UniProt Q62432 1-467) | binds | 
2 | Smad3 (from UniProt Q8BUN5 1-425) | binds | 
3 | Smad4 (from UniProt P97471 1-551) | binds | 
4 | Foxp3 (protein, UniProt Q99JB6 1-417) MPNPRPAKPMAPSLALGPSPGVLPSWKTAPKGSELLGTRGSGGPFQGRDLRSGAHTSSSLNPLPPSQLQLPTVPLVMVAPSGARLGPSPHLQALLQDRPHFMHQLSTVDAHAQTPVLQVRPLDNPAMISLPPPSAATGVFSLKARPGLPPGINVASLEWVSREPALLCTFPRSGTPRKDSNLLAAPQGSYPLLANGVCKWPGCEKVFEEPEEFLKHCQADHLLDEKGKAQCLLQREVVQSLEQQLELEKEKLGAMQAHLAGKMALAKAPSVASMDKSSCCIVATSTQGSVLPAWSAPREAPDGGLFAVRRHLWGSHGNSSFPEFFHNMDYFKYHNMRPPFTYATLIRWAILEAPERQRTLNEIYHWFTRMFAYFRNHPATWKNAIRHNLSLHKCFVRVESEKGAVWTVDEFEFRKKR | binds | binds
